Reference: patent US20250011413A1 (MCMASTER UNIVERSITY, published 2025)
No constants are given. Whether binding was seen depends on the method and setting. Some entries that bind do so weakly or less than the wild type.

Tests used:
[1] = molecular target: T1, PF4/heparin complex (human PF4 complexed with heparin) (human) (UniProt P02776); assay: BLI (Octet), against wildtype scFv
T1 sequence: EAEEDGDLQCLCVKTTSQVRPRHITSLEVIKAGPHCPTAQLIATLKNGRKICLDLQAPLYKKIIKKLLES

[2] = molecular target: T1, PF4/heparin complex (human PF4 complexed with heparin) (human); assay: competition EIA with full-length KKO
[3] = molecular target: T1, PF4/heparin complex (human PF4 complexed with heparin) (human); assay: BLI (Octet), biotinylated PF4/heparin on streptavidin sensors, scFv 1 µg/mL
[4] = molecular target: T1, PF4/heparin complex (human PF4 complexed with heparin) (human); assay: BLI (Octet), biotinylated PF4/heparin on streptavidin sensors, scFv at 1 µg/mL
[5] = molecular target: T2, Human PF4 (CXCL4), biotinylated, without heparin (human) (UniProt P02776); assay: BLI (Octet), biotinylated PF4 without heparin on streptavidin sensors, scFv at 1 µg/mL
T2 sequence (chain, biotinylated with EZ-link-Sulfo-NHS-LC-Biotin (sites not stated)): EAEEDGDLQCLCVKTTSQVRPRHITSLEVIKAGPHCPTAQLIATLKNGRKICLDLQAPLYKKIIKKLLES

[6] = molecular target: T1, PF4/heparin complex (human PF4 complexed with heparin) (human); assay: streptavidin/biotin-heparin/PF4 inhibition EIA; competitor full-length KKO at 2 µg/mL, detected with anti-mouse IgG (n=3)

binding [1]: binds
binding [2]: binds
binding [3]: binds
binding [4]: binds
binding [5]: binds
binding [6]: binds
B1: Mutant E scFv, scFv(Y156H, D180G, Q233P) (scFv)
scFv: DIQMIQSQKFMSTSVGDRVTVTCKASQNVGTNVAWYQQKPGQSPNALIYSASYRYSGVPDRFTGSGSGTDFTLTITNVQSEDLADYFCQQYNSYPLTFGTGTKLDLKGGGGSGGGGSGGGGSVQLQQSGAELVKPGASVKLSCKASGYTFTNYFIHWVKQRPGQGLEWIGEINPKNGDTGFNEKFESRATLTVDKSSSTAYMQLSSLTSEDSAIYYCTRSPYGNNYGFTYWGPGTLVTVSA
notes: VL-linker-VH; histidine-tagged, from E. coli BL21; also called Mut E; not shown: histidine tag from the pADL-22c vector
